T/C and survivor count data for 27 compounds are collected here from PubChem BioAssay AID330 (DTP/NCI, 2004).

The test system of the test is P388 leukemia ip, CD2F1 mice, survival T/C. The test can be described thus: NCI In Vivo Anticancer Drug Screen. Data for tumor model P388 Leukemia (intraperitoneal) in CD2F1 (CDF1) mice. Particulars: T/C endpoint: median survival time, higher T/C = longer survival.
The mark [1] stands for this setting: dose: 0.42 mg/kg/injection, schedule: Q01DX009 (ip), vehicle: saline.
The mark [2] stands for this setting: dose: 100.0 mg/kg/injection, schedule: Q01DX005 (ip), vehicle: saline with Tween-80.
Setting [3] is: dose: 240.0 mg/kg/injection, schedule: Q01DX005 (ip), vehicle: saline.
Where [4] appears, read: dose: 200.0 mg/kg/injection, schedule: Q01DX005 (ip), vehicle: saline.
Setting [5] is: dose: 240.0 mg/kg/injection, schedule: Q01DX005 (ip), vehicle: saline with Tween-80.
[6] abbreviates: dose: 50.0 mg/kg/injection, schedule: Q01DX005 (ip), vehicle: saline with Tween-80.
The mark [7] stands for this setting: dose: 200.0 mg/kg/injection, schedule: Q01DX005 (ip), vehicle: saline with Tween-80.
Where [8] appears, read: dose: 200.0 mg/kg/injection, schedule: Q01DX005 (ip), vehicle: Klucel (hydroxypropylcellulose) (HPC).
[9] abbreviates: dose: 200.0 mg/kg/injection, schedule: Q01DX009 (ip), vehicle: saline.
The mark [10] stands for this setting: dose: 100.0 mg/kg/injection, schedule: Q01DX005 (ip), vehicle: Klucel (hydroxypropylcellulose) (HPC).
Where [11] appears, read: dose: 0.63 mg/kg/injection, schedule: Q01DX009 (ip), vehicle: Klucel (hydroxypropylcellulose) (HPC).

Molecules are shown by their SMILES. The list does not hold the whole screen: it is rich in T/C values a quarter to a half above the control, in often repeated tests (any T/C) and in doses without a T/C. Further doses and runs are listed elsewhere. T/C: endpoint of the treated group in % of that of the vehicle group. Some entries give survivors of the animals treated and no T/C: the source holds a T/C of zero for them, seemingly a mark for toxic or unscored doses. Some doses without a T/C left all or most animals alive at the check, yet need not have been tolerated: survival well below the control is almost never listed, so the zero probably covers shortened survival too. Counts of survivors are from the toxicity check (mostly the fifth day) where no day follows; animals may have died later. Schedules are NCI's codes, taken here to give the interval after Q, in days (D) or hours (H), and the number of doses after X. Some doses were run more than once; the values are given in rising order. Where survival is the endpoint, this PubChem deposit counts one and a half times the control or more as active, and values a quarter to a half above the control carry no call in these data; other NCI protocols may use other cut-offs. Some T/C values carry the count of animals alive at the toxicity check (mostly the fifth day); without a count, all were alive then.

In the case of `CCN1/C(=C/C=C/C=C/c2sc3ccccc3[n+]2CC)Sc2ccccc21`, the T/C was 131 % of control (dose: 0.08 mg/kg/injection, schedule: Q01DX009 (ip), vehicle: saline); 132 % of control (dose: 0.1 mg/kg/injection, schedule: Q01DX009 (ip), vehicle: saline); 127 and 137 % of control [5 of 6 alive] (dose: 0.12 mg/kg/injection, schedule: Q01DX009 (ip), vehicle: saline); 127 and 144 % of control [5 of 6 alive] (dose: 0.19 mg/kg/injection, schedule: Q01DX009 (ip), vehicle: saline); 137 % of control (dose: 0.2 mg/kg/injection, schedule: Q01DX009 (ip), vehicle: saline); 134 % of control [5 of 6 alive] (dose: 0.25 mg/kg/injection, schedule: Q01DX009 (ip), vehicle: saline). Also, the T/C by setting is: (dose: 0.3 mg/kg/injection, schedule: Q01DX009 (ip), vehicle: saline) 138 % of control; (dose: 0.4 mg/kg/injection, schedule: Q01DX009 (ip), vehicle: saline) 137 % of control; under setting [1], 130 % of control. In addition, the survivor count is given as 2 of 6 (dose: 0.28 mg/kg/injection, schedule: Q01DX009 (ip), vehicle: saline); 2 of 6 under setting [1]; 2 of 6 (dose: 0.5 mg/kg/injection, schedule: Q01DX009 (ip), vehicle: saline); 2 of 6 (dose: 1.0 mg/kg/injection, schedule: Q01DX009 (ip), vehicle: saline).

Consider `CC1/C=C/C=C/CC/C=C/C=C/C=C/C=C/C(OC2OC(C)C(O)C(N)C2O)CC2OC(CC(O)C(O)CCC(O)CC(O)CC(O)CC(=O)OC(C)C(C)C1O)CC(O)C2C(=O)O` (stereo not given), for which the survivor count under setting [2] is 3 of 5.

With `CC(C)N1C(C)(C)C1(C)C#N` (stereo not given), the survivor count under setting [3] is 0 of 6.

As to `N#CC(C#N)(c1ccccc1)N1CCOCC1`, the survivor count (dose: 400.0 mg/kg/injection, schedule: Q04DX003 (ip), vehicle: saline with Tween-80) is 0 of 6.

As to `Cn1c(=O)c2c(nc([N+](=O)[O-])n2C)n(C)c1=O`, for the setting “dose: 400.0 mg/kg/injection, schedule: Q04DX003 (ip), vehicle: saline”, the survivor count is 0 of 6.

As for `CN(C)CCN(Cc1ccc(Cl)s1)c1ccccn1`, under setting [4], the survivor count is 0 of 5.

As to `O=C1OC(OC/C(Br)=C(\Br)COC2OC(=O)C(Cl)=C2Cl)C(Cl)=C1Cl` (stereo not given), the survivor count by setting is: (dose: 60.0 mg/kg/injection, schedule: Q01DX005 (ip), vehicle: saline with Tween-80) 4 of 6; (dose: 120.0 mg/kg/injection, schedule: Q01DX005 (ip), vehicle: saline with Tween-80) 2 of 6; under setting [5], 3 of 6.

Consider `c1ccc(N2CCN(c3ccccc3)C2=C2N(c3ccccc3)CCN2c2ccccc2)cc1`, for which the survivor count runs as follows: (dose: 50.0 mg/kg/injection, schedule: Q01DX005 (ip), vehicle: saline) 1 of 3 and 2 of 6; (dose: 100.0 mg/kg/injection, schedule: Q01DX005 (ip), vehicle: saline) 0 of 6; under setting [4], 0 of 6.

Turning to `CN(C)C1=C(Cl)C(=O)c2ccccc2C1=O`, the survivor count (dose: 200.0 mg/kg/injection, schedule: Q01DX009 (ip), vehicle: Klucel (hydroxypropylcellulose) (HPC)) is recorded as 4 of 6.

Consider `CC(NNC(=S)N1CCC(c2ccccc2)CC1)c1cc2ccccc2cn1` (stereo not given), for which the survivor count was 6 of 6 under setting [6], 3 of 6 under setting [2] and 0 of 6 under setting [7].

In the case of `CC(CN1CCCCC1)NC(=O)c1scnc1-c1ccccc1` (stereo not given), under setting [5], the survivor count was 1 of 6.

With `COc1cc2c(cc1OC)C1CC(=O)C(CC(C)C)CN1CC2` (stereo not given), the survivor count (dose: 100.0 mg/kg/injection, schedule: Q01DX009 (ip), vehicle: Klucel (hydroxypropylcellulose) (HPC)) is listed as 0 of 6.

With `CC(=O)C1=C(O)C(CC(C)C)NC1=O` (stereo not given), the survivor count under setting [8] was 3 of 6.

`O=C(Cl)C=Cc1ccc([N+](=O)[O-])cc1` (mixture of isomers): the survivor count under setting [9] is reported as 6 of 6.

As to `Cc1ccc2c(C)c3c(ccc4ccccc43)c[n+]2c1`, the survivor count (dose: 40.0 mg/kg/injection, schedule: Q04DX003 (ip), vehicle: other) is 0 of 6.

`O=C(O)/C(Cl)=C(Cl)\C=N\c1ncn[nH]1`: the survivor count is given as 1 of 5 (dose: 50.0 mg/kg/injection, schedule: Q01DX005 (ip), vehicle: Klucel (hydroxypropylcellulose) (HPC)); 0 of 5 under setting [10]; 0 of 5 under setting [8].

Regarding `COc1cccc2c1[n+]([O-])c1cccc(O)c1[n+]2[O-]`, the T/C was 127 % of control (dose: 6.25 mg/kg/injection, schedule: Q01DX009 (ip), vehicle: saline with Tween-80) and 126 % of control (dose: 12.5 mg/kg/injection, schedule: Q01DX009 (ip), vehicle: saline with Tween-80). In addition, the survivor count by setting is: (dose: 25.0 mg/kg/injection, schedule: Q01DX009 (ip), vehicle: saline with Tween-80) 5 of 6; (dose: 50.0 mg/kg/injection, schedule: Q01DX009 (ip), vehicle: saline) 1 of 6; (dose: 100.0 mg/kg/injection, schedule: Q01DX009 (ip), vehicle: saline) 0 of 6; under setting [9], 0 of 6.

Regarding `O=C1OC(OC2OC(=O)C(Cl)=C2Cl)C(Cl)=C1Cl` (stereo not given), under setting [6], the T/C was 125 % of control. The survivor count is 0 of 5 and 0 of 6 under setting [6]; 0 of 5 and 0 of 6 under setting [2]; 0 of 5 under setting [7].

With `CCOC(=O)Nc1nc2ccccc2n1CN1CCN(c2ccccc2)CC1`, the survivor count under setting [8] is reported as 5 of 6.

Take `O=C([O-])CC(=O)[O-].[Cu+2].c1ccc(-c2ccccn2)nc1`: the survivor count runs as follows: under setting [6], 0 of 6; under setting [2], 0 of 6; under setting [7], 0 of 6.

As to `COC1CC(CC2CCC(C)C(C(C)C(=O)O)O2)OC2(OC(C)(C3CCC(C)(C4OC(C5OC(O)(CO)C(C)CC5C)CC4C)O3)CC2C)C1C` (stereo not given), the T/C is 93, 96, 104 % of control under setting [11] and 102, 104, 115, 125 % of control (dose: 1.25 mg/kg/injection, schedule: Q01DX009 (ip), vehicle: Klucel (hydroxypropylcellulose) (HPC)). The survivor count was 6 of 6 under setting [11]; 4 of 6 and 6 of 6 (dose: 5.0 mg/kg/injection, schedule: Q01DX009 (ip), vehicle: Klucel (hydroxypropylcellulose) (HPC)).

With `COc1cc2c(cc1O)CC1c3c(cc(OC)c(O)c3C2)CCN1C` (stereo not given), the survivor count is, setting by setting: (dose: 100.0 mg/kg/injection, schedule: Q01DX001 (ip), vehicle: saline with Tween-80) 2 of 6; (dose: 200.0 mg/kg/injection, schedule: Q01DX001 (ip), vehicle: saline with Tween-80) 0 of 6 and 3 of 6; (dose: 400.0 mg/kg/injection, schedule: Q01DX001 (ip), vehicle: saline with Tween-80) 0 of 6.

With `CSc1nc(N)c(C(=O)c2sc(SC)nc2N)s1`, the survivor count is reported as 6 of 6 under setting [10] and 6 of 6 under setting [8].

Consider `Nc1ncnc(N)c1NC(=O)c1ccccc1`, for which the survivor count (dose: 240.0 mg/kg/injection, schedule: Q01DX005 (ip), vehicle: suspension in saline) is given as 0 of 6.

For `COc1ccc(CCn2cnn3c(=O)c4ccccc4nc3c2=O)cc1OC`, the survivor count under setting [5] is 6 of 6.

Take `COC1/C=C/OC2(C)Oc3c(C)c(O)c4c(O)c(c(/C=N/N5C(C)CN(Cc6ccccc6C#N)CC5C)c(O)c4c3C2=O)NC(=O)/C(C)=C\C=C\C(C)C(O)C(C)C(O)C(C)C(OC(C)=O)C1C` (stereo not given): where the note is “dose: 50.0 mg/kg/injection, schedule: Q01DX009 (ip), vehicle: saline with Tween-80”, the T/C is 125 % of control. Further, the survivor count (dose: 200.0 mg/kg/injection, schedule: Q01DX009 (ip), vehicle: saline with Tween-80) is reported as 1 of 6.

For `C/C(=N\N=C(N)N)c1c(C)nn(C(=N)N)c1C`, the survivor count is given as 1 of 6 (dose: 120.0 mg/kg/injection, schedule: Q01DX005 (ip), vehicle: saline) and 0 of 6 under setting [3].
